# Measurements: the supplement of paper PMC8728848
# This is one part of the list.
# B1: RfpC (Mycobacterium tuberculosum), O07747 (protein)
# chain: MHHHHHHSSGRENLYFQGHMASKSAMAAGLVTASMSLSTAVAHAGPSPNWDAVAQCESGGNWAANTGNGKYGGLQFKPATWAAFGGVGNPAAASREQQIAVANRVLAEQGLDAWPTCGAASGLPIALWSKPAQGIKGS
# Key:
# Assay in all cases: glycan array binding signal (z-score within array); higher = stronger binding
# Details in all cases: glycan notation: IUPAC condensed, linker removed
# [1] = target: GlcNAc3Prop(b1-4)GlcNAc
# Procedure, shortened: (§1)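 Glycan array data came from 3228 arrays in the Consortium for Functional Glycomics database, and only arrays with an available protein sequence were kept. Glycan names were put into IUPAC-condensed notation, and columns mapping to the same glycan were averaged. The binding signal is a within-array Z-score, averaged across arrays of one protein sequence run at different concentrations or buffers and across linkers. A negative Z-score can be read as non-binding.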
# [2] = target: Kdn(a2-3)Gal(b1-3)GlcNAc
# Procedure, shortened: as §1
# [3] = target: Kdn(a2-3)Gal(b1-4)GlcNAc
# Procedure, shortened: as §1
# [4] = target: Man(a1-2)Man(a1-2)Man(a1-3)Man
# Procedure, shortened: as §1
# [5] = target: Man(a1-2)Man(a1-2)Man(a1-6)[Man(a1-3)]Man
# Procedure, shortened: as §1
# [6] = target: Man(a1-2)Man(a1-3)Man
# Procedure, shortened: as §1
# [7] = target: Man(a1-2)Man(a1-3)[Man(a1-2)Man(a1-6)]Man
# Procedure, shortened: as §1
# [8] = target: Man(a1-2)Man(a1-3)[Man(a1-2)Man(a1-6)]Man(a1-6)[Man(a1-2)Man(a1-2)Man(a1-3)]Man
# Procedure, shortened: as §1
# [9] = target: Man(a1-2)Man(a1-3)[Man(a1-2)Man(a1-6)]Man(a1-6)[Man(a1-2)Man(a1-2)Man(a1-3)]Man(b1-4)GlcNAc(b1-4)GlcNAc
# Procedure, shortened: as §1
# [10] = target: Man(a1-2)Man(a1-3)[Man(a1-6)]Man(a1-6)[Man(a1-2)Man(a1-3)]Man(b1-4)GlcNAc(b1-4)GlcNAc
# Procedure, shortened: as §1
# [11] = target: Man(a1-2)Man(a1-6)[Man(a1-3)]Man(a1-6)[Man(a1-2)Man(a1-2)Man(a1-3)]Man
# Procedure, shortened: as §1
# [12] = target: Man(a1-2)Man(a1-6)[Man(a1-3)]Man(a1-6)[Man(a1-2)Man(a1-2)Man(a1-3)]Man(b1-4)GlcNAc(b1-4)GlcNAc
# Procedure, shortened: as §1
# [13] = target: Man(a1-3)[Man(a1-6)]Man
# Procedure, shortened: as §1
# [14] = target: Man(a1-3)[Man(a1-6)]Man(a1-6)[Man(a1-2)Man(a1-3)]Man(b1-4)GlcNAc(b1-4)GlcNAc
# Procedure, shortened: as §1
# [15] = target: Man(a1-3)[Man(a1-6)]Man(a1-6)[Man(a1-3)]Man
# Procedure, shortened: as §1
# [16] = target: Man(a1-3)[Man(a1-6)]Man(a1-6)[Man(a1-3)]Man(b1-4)GlcNAc(b1-4)GlcNAc
# Procedure, shortened: as §1
# [17] = target: Man(a1-3)[Man(a1-6)]Man(b1-4)GlcNAc(b1-4)GlcNAc
# Procedure, shortened: as §1
# [18] = target: Man(a1-6)Man
# Procedure, shortened: as §1
# [19] = target: Man(b1-4)GlcNAc
# Procedure, shortened: as §1
# [20] = target: Neu5Ac(a2-3)Gal
# Procedure, shortened: as §1
# [21] = target: Neu5Ac(a2-3)Gal(b1-3)GalNAc
# Procedure, shortened: as §1
# [22] = target: Neu5Ac(a2-3)Gal(b1-3)GalNAc(b1-3)Gal(a1-4)Gal(b1-4)Glc
# Procedure, shortened: as §1
# [23] = target: Neu5Ac(a2-3)Gal(b1-3)GalNAc(b1-3)Gal(b1-4)GlcNAc
# Procedure, shortened: as §1
# [24] = target: Neu5Ac(a2-3)Gal(b1-3)GalNAc(b1-4)[Neu5Ac(a2-3)]Gal(b1-4)Glc
# Procedure, shortened: as §1
# [25] = target: Neu5Ac(a2-3)Gal(b1-3)GalNAc6S
# Procedure, shortened: as §1
# [26] = target: Neu5Ac(a2-3)Gal(b1-3)GlcNAc
# Procedure, shortened: as §1
# [27] = target: Neu5Ac(a2-3)Gal(b1-3)GlcNAc(b1-3)Gal(b1-3)GlcNAc
# Procedure, shortened: as §1
# [28] = target: Neu5Ac(a2-3)Gal(b1-3)GlcNAc6S
# Procedure, shortened: as §1
# [29] = target: Neu5Ac(a2-3)Gal(b1-3)[Fuc(a1-4)]GlcNAc
# Procedure, shortened: as §1
# [30] = target: Neu5Ac(a2-3)Gal(b1-3)[Fuc(a1-4)]GlcNAc(b1-3)Gal(b1-4)[Fuc(a1-3)]GlcNAc
# Procedure, shortened: as §1
# [31] = target: Neu5Ac(a2-3)Gal(b1-3)[Neu5Ac(a2-3)Gal(b1-4)]GlcNAc
# Procedure, shortened: as §1
# [32] = target: Neu5Ac(a2-3)Gal(b1-3)[Neu5Ac(a2-6)]GalNAc
# Procedure, shortened: as §1
# [33] = target: Neu5Ac(a2-3)Gal(b1-4)Glc
# Procedure, shortened: as §1
# [34] = target: Neu5Ac(a2-3)Gal(b1-4)GlcNAc
# Procedure, shortened: as §1
# [35] = target: Neu5Ac(a2-3)Gal(b1-4)GlcNAc(b1-2)Man(a1-3)[GlcNAc(b1-2)Man(b1-4)GlcNAc(b1-2)Man(a1-6)]Man(b1-4)GlcNAc(b1-4)GlcNAc
# Procedure, shortened: as §1
# [36] = target: Neu5Ac(a2-3)Gal(b1-4)GlcNAc(b1-2)Man(a1-3)[Neu5Ac(a2-6)Gal(b1-4)GlcNAc(b1-2)Man(a1-6)]Man(b1-4)GlcNAc(b1-4)GlcNAc
# Procedure, shortened: as §1
# [37] = target: Neu5Ac(a2-3)Gal(b1-4)GlcNAc(b1-3)Gal(b1-3)GlcNAc
# Procedure, shortened: as §1
# [38] = target: Neu5Ac(a2-3)Gal(b1-4)GlcNAc(b1-3)Gal(b1-4)GlcNAc
# Procedure, shortened: as §1
# [39] = target: Neu5Ac(a2-3)Gal(b1-4)GlcNAc(b1-3)Gal(b1-4)GlcNAc(b1-3)Gal(b1-4)GlcNAc
# Procedure, shortened: as §1
# [40] = target: Neu5Ac(a2-3)Gal(b1-4)GlcNAc(b1-3)Gal(b1-4)[Fuc(a1-3)]GlcNAc
# Procedure, shortened: as §1
# [41] = target: Neu5Ac(a2-3)Gal(b1-4)GlcNAc(b1-6)[Gal(b1-3)]GalNAc
# Procedure, shortened: as §1
# [42] = target: Neu5Ac(a2-3)Gal(b1-4)GlcNAc(b1-6)[Neu5Ac(a2-3)Gal(b1-3)]GalNAc
# Procedure, shortened: as §1
# [43] = target: Neu5Ac(a2-3)Gal(b1-4)GlcNAc6S
# Procedure, shortened: as §1
# [44] = target: Neu5Ac(a2-3)Gal(b1-4)[Fuc(a1-3)]GlcNAc
# Procedure, shortened: as §1
binder,measurement,setting,value
B1,glycan array binding signal (z-score),[1],-1.25
same,glycan array binding signal (z-score),[2],0.151
same,glycan array binding signal (z-score),[3],-0.421
same,glycan array binding signal (z-score),[4],2.92
same,glycan array binding signal (z-score),[5],-1
same,glycan array binding signal (z-score),[6],0.513
same,glycan array binding signal (z-score),[7],-1.43
same,glycan array binding signal (z-score),[8],0.7
same,glycan array binding signal (z-score),[9],-0.745
same,glycan array binding signal (z-score),[10],-0.308
same,glycan array binding signal (z-score),[11],0.818
same,glycan array binding signal (z-score),[12],-1.59
same,glycan array binding signal (z-score),[13],0.439
same,glycan array binding signal (z-score),[14],0.88
same,glycan array binding signal (z-score),[15],1.04
same,glycan array binding signal (z-score),[16],0.01
same,glycan array binding signal (z-score),[17],0.853
same,glycan array binding signal (z-score),[18],-0.622
same,glycan array binding signal (z-score),[19],-0.798
same,glycan array binding signal (z-score),[20],0.641
same,glycan array binding signal (z-score),[21],-0.523
same,glycan array binding signal (z-score),[22],-1.26
same,glycan array binding signal (z-score),[23],-1.31
same,glycan array binding signal (z-score),[24],-0.923
same,glycan array binding signal (z-score),[25],0.316
same,glycan array binding signal (z-score),[26],1.27
same,glycan array binding signal (z-score),[27],-0.255
same,glycan array binding signal (z-score),[28],-0.125
same,glycan array binding signal (z-score),[29],-1.26
same,glycan array binding signal (z-score),[30],1.49
same,glycan array binding signal (z-score),[31],-0.688
same,glycan array binding signal (z-score),[32],-0.194
same,glycan array binding signal (z-score),[33],0.008
same,glycan array binding signal (z-score),[34],0.366
same,glycan array binding signal (z-score),[35],-0.194
same,glycan array binding signal (z-score),[36],0.203
same,glycan array binding signal (z-score),[37],-1.06
same,glycan array binding signal (z-score),[38],1.29
same,glycan array binding signal (z-score),[39],-0.896
same,glycan array binding signal (z-score),[40],-0.432
same,glycan array binding signal (z-score),[41],-0.262
same,glycan array binding signal (z-score),[42],-0.696
same,glycan array binding signal (z-score),[43],-0.765
same,glycan array binding signal (z-score),[44],-0.251
